# In the supplement of paper PMC10849652:
# Amino acid sequences for entries named in this document (tags omitted). A change or cut given only in a name is not applied to a line headed by its entry.
# UniProt Q86YS6: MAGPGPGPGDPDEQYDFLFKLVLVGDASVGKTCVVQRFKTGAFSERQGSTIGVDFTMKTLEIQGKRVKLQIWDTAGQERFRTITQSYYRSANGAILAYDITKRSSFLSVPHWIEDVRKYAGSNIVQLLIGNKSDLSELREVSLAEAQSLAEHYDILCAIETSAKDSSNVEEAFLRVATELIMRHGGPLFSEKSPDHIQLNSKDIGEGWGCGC
# UniProt Q96S21: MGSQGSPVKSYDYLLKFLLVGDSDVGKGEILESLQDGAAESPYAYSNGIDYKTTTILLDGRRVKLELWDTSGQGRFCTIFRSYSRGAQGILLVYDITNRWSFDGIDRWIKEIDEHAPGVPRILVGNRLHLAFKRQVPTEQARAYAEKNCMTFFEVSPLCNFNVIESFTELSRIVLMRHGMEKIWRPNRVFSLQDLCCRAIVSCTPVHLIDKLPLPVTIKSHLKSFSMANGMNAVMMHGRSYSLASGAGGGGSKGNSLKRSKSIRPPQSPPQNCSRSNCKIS
# UniProt Q96B01: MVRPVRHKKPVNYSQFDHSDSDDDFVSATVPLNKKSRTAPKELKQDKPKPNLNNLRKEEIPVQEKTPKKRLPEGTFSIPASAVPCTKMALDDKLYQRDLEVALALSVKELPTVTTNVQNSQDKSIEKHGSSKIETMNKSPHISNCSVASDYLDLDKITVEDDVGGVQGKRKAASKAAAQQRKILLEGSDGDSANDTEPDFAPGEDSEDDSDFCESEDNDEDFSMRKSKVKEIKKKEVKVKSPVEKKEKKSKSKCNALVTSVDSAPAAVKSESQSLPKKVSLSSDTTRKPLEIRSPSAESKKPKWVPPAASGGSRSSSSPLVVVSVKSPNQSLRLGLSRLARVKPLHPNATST
# UniProt P61020: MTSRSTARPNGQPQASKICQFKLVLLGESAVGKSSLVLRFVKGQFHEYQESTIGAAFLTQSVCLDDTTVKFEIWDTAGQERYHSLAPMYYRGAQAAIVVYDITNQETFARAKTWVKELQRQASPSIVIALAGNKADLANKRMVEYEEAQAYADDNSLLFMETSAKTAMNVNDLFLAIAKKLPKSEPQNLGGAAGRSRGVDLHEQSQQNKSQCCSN
# UniProt Q96QF0: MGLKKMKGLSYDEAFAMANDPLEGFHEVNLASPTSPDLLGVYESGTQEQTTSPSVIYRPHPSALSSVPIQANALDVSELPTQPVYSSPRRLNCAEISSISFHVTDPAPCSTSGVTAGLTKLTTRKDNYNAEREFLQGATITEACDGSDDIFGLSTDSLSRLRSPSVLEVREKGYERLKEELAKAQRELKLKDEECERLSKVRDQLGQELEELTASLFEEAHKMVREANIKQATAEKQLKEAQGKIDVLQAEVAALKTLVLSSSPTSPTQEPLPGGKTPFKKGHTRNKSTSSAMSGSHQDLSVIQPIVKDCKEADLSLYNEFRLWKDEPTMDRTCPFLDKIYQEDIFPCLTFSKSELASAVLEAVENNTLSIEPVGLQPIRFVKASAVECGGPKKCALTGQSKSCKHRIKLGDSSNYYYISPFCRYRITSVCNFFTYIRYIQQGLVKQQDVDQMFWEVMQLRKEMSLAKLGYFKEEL
# UniProt Q92698: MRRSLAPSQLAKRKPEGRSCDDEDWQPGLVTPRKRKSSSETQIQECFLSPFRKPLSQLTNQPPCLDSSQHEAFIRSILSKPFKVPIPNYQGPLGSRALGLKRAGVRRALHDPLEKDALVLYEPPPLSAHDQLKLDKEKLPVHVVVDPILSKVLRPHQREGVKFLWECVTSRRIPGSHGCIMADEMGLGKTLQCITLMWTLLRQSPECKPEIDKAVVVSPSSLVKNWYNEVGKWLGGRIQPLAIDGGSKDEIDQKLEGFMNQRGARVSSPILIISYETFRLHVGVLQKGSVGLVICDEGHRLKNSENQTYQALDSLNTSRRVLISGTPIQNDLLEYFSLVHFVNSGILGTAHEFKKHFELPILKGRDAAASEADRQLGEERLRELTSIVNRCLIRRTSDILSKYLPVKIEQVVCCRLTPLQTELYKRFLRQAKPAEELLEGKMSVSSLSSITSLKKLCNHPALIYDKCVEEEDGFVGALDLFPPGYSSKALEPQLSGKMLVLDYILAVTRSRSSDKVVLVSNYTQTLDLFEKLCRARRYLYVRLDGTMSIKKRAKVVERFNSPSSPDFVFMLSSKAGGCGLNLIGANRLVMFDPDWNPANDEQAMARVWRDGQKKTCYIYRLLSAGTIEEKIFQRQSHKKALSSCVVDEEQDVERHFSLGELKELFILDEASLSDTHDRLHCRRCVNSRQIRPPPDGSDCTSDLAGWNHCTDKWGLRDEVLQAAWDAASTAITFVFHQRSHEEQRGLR
# UniProt Q9ULC3: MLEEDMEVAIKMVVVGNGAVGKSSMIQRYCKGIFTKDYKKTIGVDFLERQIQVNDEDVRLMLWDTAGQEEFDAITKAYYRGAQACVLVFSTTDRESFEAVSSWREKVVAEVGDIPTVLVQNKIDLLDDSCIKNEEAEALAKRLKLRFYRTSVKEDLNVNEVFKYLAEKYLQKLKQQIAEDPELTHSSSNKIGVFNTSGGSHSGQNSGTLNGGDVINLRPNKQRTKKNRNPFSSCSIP
# UniProt Q86X27: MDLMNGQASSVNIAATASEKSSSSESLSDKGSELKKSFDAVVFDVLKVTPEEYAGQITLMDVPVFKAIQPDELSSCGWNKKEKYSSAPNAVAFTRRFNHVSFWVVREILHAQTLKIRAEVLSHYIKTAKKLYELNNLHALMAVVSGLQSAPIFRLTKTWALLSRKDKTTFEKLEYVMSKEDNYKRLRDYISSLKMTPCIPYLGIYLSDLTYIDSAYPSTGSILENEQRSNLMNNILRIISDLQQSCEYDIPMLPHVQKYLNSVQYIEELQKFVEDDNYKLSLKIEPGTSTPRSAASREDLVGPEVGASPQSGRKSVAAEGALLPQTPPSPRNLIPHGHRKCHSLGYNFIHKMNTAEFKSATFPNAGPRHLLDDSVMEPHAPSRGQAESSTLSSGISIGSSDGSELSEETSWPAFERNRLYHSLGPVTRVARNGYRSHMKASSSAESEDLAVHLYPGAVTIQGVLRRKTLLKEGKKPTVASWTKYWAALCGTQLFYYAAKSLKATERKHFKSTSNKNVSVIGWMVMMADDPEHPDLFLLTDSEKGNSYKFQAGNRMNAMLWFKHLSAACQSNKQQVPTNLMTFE
# UniProt Q7Z5J4: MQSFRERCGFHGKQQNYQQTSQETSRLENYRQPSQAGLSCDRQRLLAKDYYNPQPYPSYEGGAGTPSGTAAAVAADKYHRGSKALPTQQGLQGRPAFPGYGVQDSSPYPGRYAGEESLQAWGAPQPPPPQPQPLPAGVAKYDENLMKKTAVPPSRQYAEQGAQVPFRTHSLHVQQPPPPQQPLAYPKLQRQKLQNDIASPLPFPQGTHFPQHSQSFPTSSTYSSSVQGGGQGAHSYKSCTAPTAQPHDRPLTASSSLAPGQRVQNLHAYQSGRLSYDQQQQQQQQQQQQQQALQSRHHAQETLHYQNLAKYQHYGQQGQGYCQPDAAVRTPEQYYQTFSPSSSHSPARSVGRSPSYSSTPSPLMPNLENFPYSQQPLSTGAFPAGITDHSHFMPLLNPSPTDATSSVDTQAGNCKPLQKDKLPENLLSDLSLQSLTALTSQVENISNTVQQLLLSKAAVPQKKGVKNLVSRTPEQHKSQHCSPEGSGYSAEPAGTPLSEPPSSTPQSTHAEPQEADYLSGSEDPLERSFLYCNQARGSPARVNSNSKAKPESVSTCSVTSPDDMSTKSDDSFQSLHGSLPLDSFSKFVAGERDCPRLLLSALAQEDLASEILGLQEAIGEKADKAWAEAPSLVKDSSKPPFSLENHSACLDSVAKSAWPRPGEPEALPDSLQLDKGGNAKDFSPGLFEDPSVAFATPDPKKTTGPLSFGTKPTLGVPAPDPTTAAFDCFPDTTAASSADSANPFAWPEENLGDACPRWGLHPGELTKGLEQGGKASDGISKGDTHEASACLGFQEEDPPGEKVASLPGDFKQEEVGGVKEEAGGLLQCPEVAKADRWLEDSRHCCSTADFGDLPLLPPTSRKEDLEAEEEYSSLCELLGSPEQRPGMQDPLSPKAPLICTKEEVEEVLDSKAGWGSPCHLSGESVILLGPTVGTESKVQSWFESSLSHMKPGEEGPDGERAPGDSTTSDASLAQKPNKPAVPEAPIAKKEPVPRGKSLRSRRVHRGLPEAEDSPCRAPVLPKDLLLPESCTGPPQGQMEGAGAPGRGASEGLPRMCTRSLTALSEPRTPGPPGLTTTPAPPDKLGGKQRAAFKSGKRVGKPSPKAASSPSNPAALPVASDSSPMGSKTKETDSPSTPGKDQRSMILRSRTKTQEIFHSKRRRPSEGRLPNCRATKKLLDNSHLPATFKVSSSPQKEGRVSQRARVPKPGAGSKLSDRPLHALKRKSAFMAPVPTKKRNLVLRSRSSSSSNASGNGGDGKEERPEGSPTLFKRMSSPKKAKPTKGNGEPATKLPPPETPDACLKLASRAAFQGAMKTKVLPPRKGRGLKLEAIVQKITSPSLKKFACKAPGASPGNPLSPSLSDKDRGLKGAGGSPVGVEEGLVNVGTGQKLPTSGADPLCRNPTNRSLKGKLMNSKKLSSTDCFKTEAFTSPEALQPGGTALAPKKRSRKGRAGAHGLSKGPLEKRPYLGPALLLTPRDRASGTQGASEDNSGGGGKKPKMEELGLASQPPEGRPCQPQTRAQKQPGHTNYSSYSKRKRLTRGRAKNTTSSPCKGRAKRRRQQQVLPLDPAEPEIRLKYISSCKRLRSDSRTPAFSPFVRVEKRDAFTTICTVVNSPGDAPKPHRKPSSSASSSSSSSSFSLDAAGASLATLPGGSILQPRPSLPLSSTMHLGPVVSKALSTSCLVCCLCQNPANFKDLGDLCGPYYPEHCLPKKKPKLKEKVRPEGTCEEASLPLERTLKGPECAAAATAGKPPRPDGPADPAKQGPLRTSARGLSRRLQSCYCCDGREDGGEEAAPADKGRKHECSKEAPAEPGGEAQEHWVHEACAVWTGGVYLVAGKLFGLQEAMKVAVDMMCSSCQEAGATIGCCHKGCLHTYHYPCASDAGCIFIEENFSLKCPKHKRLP
# UniProt Q9Y4B4: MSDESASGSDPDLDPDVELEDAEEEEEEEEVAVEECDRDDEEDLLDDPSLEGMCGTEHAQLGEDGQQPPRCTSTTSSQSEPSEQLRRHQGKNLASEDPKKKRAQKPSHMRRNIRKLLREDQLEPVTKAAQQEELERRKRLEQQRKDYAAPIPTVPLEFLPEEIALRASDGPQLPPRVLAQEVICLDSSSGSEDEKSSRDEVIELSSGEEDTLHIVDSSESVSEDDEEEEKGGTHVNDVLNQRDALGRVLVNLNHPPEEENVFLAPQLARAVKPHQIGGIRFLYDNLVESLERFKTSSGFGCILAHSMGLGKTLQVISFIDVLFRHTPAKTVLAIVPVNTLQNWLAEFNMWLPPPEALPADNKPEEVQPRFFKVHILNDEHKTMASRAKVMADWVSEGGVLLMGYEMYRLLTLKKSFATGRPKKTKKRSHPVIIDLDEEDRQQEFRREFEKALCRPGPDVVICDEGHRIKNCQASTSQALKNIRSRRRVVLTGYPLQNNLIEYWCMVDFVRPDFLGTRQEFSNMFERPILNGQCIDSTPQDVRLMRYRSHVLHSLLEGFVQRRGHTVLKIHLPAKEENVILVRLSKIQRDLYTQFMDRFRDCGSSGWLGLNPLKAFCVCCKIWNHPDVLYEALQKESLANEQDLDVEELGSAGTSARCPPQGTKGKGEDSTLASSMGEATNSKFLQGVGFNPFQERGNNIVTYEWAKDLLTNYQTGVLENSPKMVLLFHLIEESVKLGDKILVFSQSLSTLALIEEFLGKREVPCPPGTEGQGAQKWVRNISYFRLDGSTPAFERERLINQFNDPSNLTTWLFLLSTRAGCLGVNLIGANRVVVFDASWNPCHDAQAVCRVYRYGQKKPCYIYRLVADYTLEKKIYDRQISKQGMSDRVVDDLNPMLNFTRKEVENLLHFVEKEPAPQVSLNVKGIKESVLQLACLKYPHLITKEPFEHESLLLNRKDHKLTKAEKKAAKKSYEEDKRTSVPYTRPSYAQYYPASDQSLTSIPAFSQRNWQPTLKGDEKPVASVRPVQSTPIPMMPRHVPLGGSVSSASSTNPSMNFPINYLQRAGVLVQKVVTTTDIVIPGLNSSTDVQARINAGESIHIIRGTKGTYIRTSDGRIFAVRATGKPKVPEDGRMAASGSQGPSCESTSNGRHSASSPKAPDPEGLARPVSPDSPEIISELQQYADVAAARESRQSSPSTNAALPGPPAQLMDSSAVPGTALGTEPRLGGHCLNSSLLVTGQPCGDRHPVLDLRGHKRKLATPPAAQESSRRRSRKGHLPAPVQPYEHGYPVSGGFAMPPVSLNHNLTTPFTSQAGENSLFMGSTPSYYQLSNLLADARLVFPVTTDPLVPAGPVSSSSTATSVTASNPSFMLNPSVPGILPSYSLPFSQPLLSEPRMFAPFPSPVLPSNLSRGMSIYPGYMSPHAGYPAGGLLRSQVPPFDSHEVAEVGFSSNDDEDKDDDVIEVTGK
# Some of the results follow.
# Legend:
# Experiment in all cases: log2 fold change, soluble protein after heating vs DMSO (PISA); higher = thermal stabilisation; K562 lysate, 10 uM; active = over 0.2 and 3.5 SD of the protein, either way, in both replicates (recomputed)
# alvocidib = compound: CN1CC[C@H](c2c(O)cc(O)c3c(=O)cc(-c4ccccc4Cl)oc23)[C@H](O)C1 [alvocidib]
# Method in brief: (§1)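 To prepare the extract, K562 pellets were dounce-homogenised in PBS pH 7.4 with 1 mM MgCl2, giving crude material at 1 mg/mL protein. This was treated with 10 μM compound for 30 min, then heated in aliquots for 3 min over 48°C-58°C before pooling and addition of NP-40 to 0.5% at 4°C. Centrifugation at 21,000xg for 90 min left soluble protein in the supernatant, which TMTpro 16plex LC-MS/MS quantified with equalised channel sums. Results are log-two fold changes in thermal stability compared with solvent controls, from duplicates.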
# Tubastatin A = compound: CN1CCc2c(c3ccccc3n2Cc2ccc(C(=O)NO)cc2)C1 [Tubastatin A]
# Method in brief: as §1
# [1] = compound: CNC(=O)C1=CC=CC=C1NC2=NC(=NC=C2Cl)NC3=C(C=C(C=C3)N4CCOCC4)OC
# Method in brief: as §1
# defactinib = compound: CNC(=O)c1ccc(Nc2ncc(C(F)(F)F)c(NCc3nccnc3N(C)S(C)(=O)=O)n2)cc1 [defactinib]
# Method in brief: as §1
# [2] = compound: CNc1nc(-c2ccc3c(N)n[nH]c3c2)cc(N2C[C@@H](C(=O)NC3CCCCC3)CC[C@H]2C)n1
# Method in brief: as §1
# encorafenib = compound: COC(=O)N[C@@H](C)CNc1nccc(-c2cn(C(C)C)nc2-c2cc(Cl)cc(NS(C)(=O)=O)c2F)n1 [encorafenib]
# Method in brief: as §1
# [3] = compound: COC(=O)[C@H](CCSC)NC(=O)C1=C(C=C(C=C1)NC[C@H](CS)N)C2=CC=CC=C2
# Method in brief: as §1
# alisertib = compound: COc1cc(Nc2ncc3c(n2)-c2ccc(Cl)cc2C(c2c(F)cccc2OC)=NC3)ccc1C(=O)O [alisertib]
# Method in brief: as §1
# gefitinib = compound: COc1cc2ncnc(Nc3ccc(F)c(Cl)c3)c2cc1OCCCN1CCOCC1 [gefitinib]
# Method in brief: as §1
# crizotinib = compound: C[C@@H](Oc1cc(-c2cnn(C3CCNCC3)c2)cnc1N)c1c(Cl)ccc(F)c1Cl [crizotinib]
# Method in brief: as §1
# [4] = compound: C[C@H](C1=CC=C(C=C1)C(=O)NC2=C3C=CNC3=NC=C2)N
# Method in brief: as §1
# duvelisib = compound: C[C@H](Nc1ncnc2nc[nH]c12)c1cc2cccc(Cl)c2c(=O)n1-c1ccccc1 [duvelisib]
# Method in brief: as §1
# gandotinib = compound: Cc1cc(Nc2cc(CN3CCOCC3)c3nc(C)c(Cc4ccc(Cl)cc4F)n3n2)n[nH]1 [gandotinib]
# Method in brief: as §1
# tozasertib = compound: Cc1cc(Nc2cc(N3CCN(C)CC3)nc(Sc3ccc(NC(=O)C4CC4)cc3)n2)n[nH]1 [tozasertib]
# Method in brief: as §1
# doramapimod = compound: Cc1ccc(-n2nc(C(C)(C)C)cc2NC(=O)Nc2ccc(OCCN3CCOCC3)c3ccccc23)cc1 [doramapimod]
# Method in brief: as §1
# [5] = compound: Cc1cccc(CC(=O)N2CCc3c2ccc(-c2cn(C)c4ncnc(N)c24)c3F)n1
# Method in brief: as §1
# pictilisib = compound: CS(=O)(=O)N1CCN(Cc2cc3nc(-c4cccc5[nH]ncc45)nc(N4CCOCC4)c3s2)CC1 [pictilisib]
# Method in brief: as §1
# bafetinib = compound: Cc1ccc(NC(=O)c2ccc(CN3CC[C@H](N(C)C)C3)c(C(F)(F)F)c2)cc1Nc1nccc(-c2cncnc2)n1 [bafetinib]
# Method in brief: as §1
# [6] = compound: COc1cc2nc(-c3cc(F)ccc3O)nc(N[C@@H]3CNC[C@H]3C(C)(C)O)c2cc1OC
# Method in brief: as §1
# lapatinib = compound: CS(=O)(=O)CCNCc1ccc(-c2ccc3ncnc(Nc4ccc(OCc5cccc(F)c5)c(Cl)c4)c3c2)o1 [lapatinib]
# Method in brief: as §1
Target,log2 fold change (alvocidib),log2 fold change (Tubastatin A),log2 fold change [1],log2 fold change (defactinib),log2 fold change [2],log2 fold change (encorafenib),log2 fold change [3],log2 fold change (alisertib),log2 fold change (gefitinib),log2 fold change (crizotinib),log2 fold change [4],log2 fold change (duvelisib),log2 fold change (gandotinib),log2 fold change (tozasertib),log2 fold change (doramapimod),log2 fold change [5],log2 fold change (pictilisib),log2 fold change (bafetinib),log2 fold change [6],log2 fold change (lapatinib)
R3HDM4 (UniProt Q96D70),inactive: -0.042,inactive: -0.016,inactive: -0.069,inactive: -0.06,inactive: -0.092,inactive: 0.11,inactive: -0.126,inactive: -0.006,inactive: 0.056,inactive: -0.023,inactive: 0.155,inactive: 0.035,inactive: -0.074,inactive: -0.028,inactive: -0.073,inactive: 0.052,,,,
RAB43 (UniProt Q86YS6),inactive: -0.029,inactive: -0.068,inactive: 0.038,,inactive: 0.101,inactive: 0.058,inactive: -0.141,inactive: -0.152,inactive: -0.028,,inactive: -0.075,inactive: -0.164,inactive: -0.097,inactive: 0.053,,inactive: 0.05,inactive: -0.028,inactive: 0.048,,
RAB40C (UniProt Q96S21),inactive: -0.072,inactive: 0.048,inactive: -0.04,inactive: -0.125,,inactive: -0.047,inactive: -0.029,inactive: -0.059,inactive: 0.067,inactive: -0.075,inactive: -0.005,,inactive: 0.05,inactive: -0.071,inactive: 0.075,inactive: -0.027,inactive: -0.081,inactive: 0.007,inactive: 0.091,inactive: -0.111
PYCR1 isoform 3 (UniProt P32322),inactive: 0.021,inactive: 0.029,inactive: 0,,inactive: 0.015,inactive: -0.033,inactive: -0.06,inactive: -0.001,inactive: -0.073,inactive: 0.026,inactive: 0.04,inactive: 0.018,inactive: -0.017,inactive: -0.004,inactive: -0.039,inactive: -0.063,inactive: 0.001,inactive: 0.004,inactive: 0.01,inactive: -0.025
RAD51AP1 (UniProt Q96B01),inactive: -0.035,inactive: -0.001,inactive: -0.009,,inactive: 0,inactive: -0.044,inactive: -0.093,inactive: -0.062,inactive: 0.023,inactive: 0.033,inactive: -0.051,inactive: 0.198,inactive: 0.134,inactive: 0.023,inactive: -0.028,inactive: 0.021,inactive: 0.003,inactive: -0.025,inactive: -0.015,inactive: -0.046
RAB5B (UniProt P61020),inactive: 0.004,inactive: 0.105,inactive: 0.015,inactive: 0.019,inactive: 0.027,inactive: 0,inactive: -0.117,inactive: 0.009,inactive: -0.022,inactive: 0.013,inactive: -0.042,inactive: -0.033,inactive: 0.017,inactive: -0.032,inactive: 0.006,inactive: -0.003,inactive: -0.055,inactive: 0.032,inactive: 0.001,inactive: -0.032
RAB3IP (UniProt Q96QF0),inactive: -0.076,inactive: -0.139,inactive: 0.01,inactive: -0.075,inactive: 0.098,inactive: 0.048,inactive: -0.078,inactive: -0.095,inactive: 0.1,inactive: 0.02,inactive: 0.005,inactive: 0.094,inactive: -0.052,inactive: -0.066,inactive: 0.01,inactive: 0.029,inactive: 0,inactive: -0.112,inactive: 0.076,inactive: -0.055
RAD54L (UniProt Q92698),inactive: -0.673,inactive: 0,inactive: 0.013,,inactive: -0.132,,,inactive: -0.022,inactive: 0,,active: -1.75,inactive: 0.109,inactive: 0.454,,,inactive: 0.617,inactive: 0.029,inactive: -0.185,inactive: -0.041,inactive: -0.029
RAB23 (UniProt Q9ULC3),inactive: -0.065,inactive: 0.085,inactive: -0.061,inactive: -0.005,inactive: -0.162,inactive: 0.027,inactive: 0.048,inactive: 0.063,inactive: 0.054,inactive: 0.074,inactive: -0.032,inactive: -0.051,inactive: 0.028,inactive: 0.017,inactive: 0.08,inactive: 0.127,inactive: -0.004,inactive: 0.041,inactive: 0.061,inactive: 0.007
"RAPGEF2, A0A2R8YGD3",inactive: -0.241,active: 0.236,inactive: 0.017,inactive: 0.119,inactive: 0.025,inactive: 0.017,inactive: 0.021,inactive: 0.007,inactive: -0.042,inactive: 0.024,active: -0.431,inactive: 0.018,inactive: 0.038,inactive: 0.014,inactive: -0.039,inactive: 0.266,inactive: 0.015,inactive: -0.171,inactive: -0.017,inactive: -0.014
RAPGEF4 (UniProt Q8WZA2),inactive: -0.367,inactive: 0.156,inactive: 0.061,inactive: -0.023,inactive: 0.433,inactive: 0.018,inactive: 0.147,,,inactive: -0.24,active: -0.804,inactive: 0.104,inactive: 0.38,inactive: -0.088,inactive: -0.041,inactive: 0.543,inactive: 0.047,inactive: -0.212,inactive: 0.196,inactive: -0.061
RALGPS2 (UniProt Q86X27),inactive: -0.092,inactive: 0.015,inactive: 0.026,inactive: -0.015,,inactive: -0.038,inactive: 0.038,inactive: -0.249,inactive: -0.061,inactive: -0.244,inactive: -0.118,,inactive: 0.029,inactive: -0.06,inactive: 0.005,inactive: 0.167,inactive: 0.072,inactive: 0.006,,
RAI1 (UniProt Q7Z5J4),,,,,,inactive: -0.007,inactive: -0.164,,,inactive: -0.026,,,,inactive: 0.233,inactive: 0.121,,,,,
"RAB11FIP5, A0A1B0GTL5",inactive: -0.278,,inactive: 0.212,,,,,,,inactive: -0.2,inactive: -0.088,,inactive: -0.018,,inactive: 0.171,inactive: 0.186,,,inactive: 0.146,inactive: 0.022
RAD54B (UniProt Q9Y620),,inactive: 0,,inactive: 0.291,inactive: -0.088,inactive: -0.211,inactive: 0.046,inactive: -0.169,inactive: 0.048,inactive: -0.16,,inactive: -0.11,,inactive: 0.012,inactive: 0.076,,,,,
RAD54L2 (UniProt Q9Y4B4),inactive: 0.007,,inactive: -0.065,inactive: -0.013,inactive: 0.093,inactive: 0.102,inactive: 0.153,inactive: 0.141,inactive: 0.045,inactive: -0.037,inactive: -0.174,inactive: 0.026,inactive: -0.163,inactive: -0.166,inactive: -0.02,inactive: 0.067,inactive: -0.018,inactive: -0.095,inactive: -0.088,inactive: -0.209
RACK1 (UniProt D6RF23),,,,inactive: -0.214,,inactive: -0.084,inactive: 0.045,inactive: 0.164,inactive: 0.167,,,,,inactive: 0.191,,,inactive: 0.019,inactive: -0.003,,
PYCR1 (UniProt J3QKT4),,inactive: 0.115,inactive: -0.045,inactive: -0.1,inactive: 0.411,inactive: -0.048,inactive: 0.097,inactive: -0.092,inactive: -0.142,inactive: 0,,inactive: 0.206,,inactive: -0.045,inactive: 0.028,,inactive: -0.265,inactive: -0.252,inactive: 0.049,inactive: -0.078
RAB3B (UniProt P20337),inactive: 0.112,,,,,,,,,inactive: 0.007,inactive: -0.048,,inactive: 0.083,,inactive: -0.024,inactive: -0.036,,,,

# Part of the list above, reformatted:
Target	log2 fold change (alvocidib)	log2 fold change (Tubastatin A)	log2 fold change [1]	log2 fold change (defactinib)	log2 fold change [2]	log2 fold change (encorafenib)	log2 fold change [3]	log2 fold change (alisertib)	log2 fold change (gefitinib)	log2 fold change (crizotinib)	log2 fold change [4]	log2 fold change (duvelisib)	log2 fold change (gandotinib)	log2 fold change (tozasertib)	log2 fold change (doramapimod)	log2 fold change [5]	log2 fold change (pictilisib)	log2 fold change (bafetinib)	log2 fold change [6]	log2 fold change (lapatinib)
PYCR1 isoform 3 (UniProt P32322)	inactive: 0.021	inactive: 0.029	inactive: 0		inactive: 0.015	inactive: -0.033	inactive: -0.06	inactive: -0.001	inactive: -0.073	inactive: 0.026	inactive: 0.04	inactive: 0.018	inactive: -0.017	inactive: -0.004	inactive: -0.039	inactive: -0.063	inactive: 0.001	inactive: 0.004	inactive: 0.01	inactive: -0.025
RAD51AP1 (UniProt Q96B01)	inactive: -0.035	inactive: -0.001	inactive: -0.009		inactive: 0	inactive: -0.044	inactive: -0.093	inactive: -0.062	inactive: 0.023	inactive: 0.033	inactive: -0.051	inactive: 0.198	inactive: 0.134	inactive: 0.023	inactive: -0.028	inactive: 0.021	inactive: 0.003	inactive: -0.025	inactive: -0.015	inactive: -0.046
RAB5B (UniProt P61020)	inactive: 0.004	inactive: 0.105	inactive: 0.015	inactive: 0.019	inactive: 0.027	inactive: 0	inactive: -0.117	inactive: 0.009	inactive: -0.022	inactive: 0.013	inactive: -0.042	inactive: -0.033	inactive: 0.017	inactive: -0.032	inactive: 0.006	inactive: -0.003	inactive: -0.055	inactive: 0.032	inactive: 0.001	inactive: -0.032
RAB3IP (UniProt Q96QF0)	inactive: -0.076	inactive: -0.139	inactive: 0.01	inactive: -0.075	inactive: 0.098	inactive: 0.048	inactive: -0.078	inactive: -0.095	inactive: 0.1	inactive: 0.02	inactive: 0.005	inactive: 0.094	inactive: -0.052	inactive: -0.066	inactive: 0.01	inactive: 0.029	inactive: 0	inactive: -0.112	inactive: 0.076	inactive: -0.055
